In article PMC7819943, “Rice protein-binding microarrays: a tool to detect cis-acting elements near promoter regions in rice” one finds binding signal data, which are given here for 42 sequences.

The chains behind the UniProt entries cited, without tags or fusion partners.
UniProt Q0JBA9, entry or part of it: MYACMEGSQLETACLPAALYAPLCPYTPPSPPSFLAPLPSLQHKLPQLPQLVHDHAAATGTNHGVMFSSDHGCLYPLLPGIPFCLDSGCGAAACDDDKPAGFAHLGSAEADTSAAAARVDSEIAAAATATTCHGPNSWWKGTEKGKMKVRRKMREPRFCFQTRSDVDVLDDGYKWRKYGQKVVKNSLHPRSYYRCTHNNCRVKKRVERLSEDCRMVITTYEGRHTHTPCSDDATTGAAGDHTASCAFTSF

The list shows a part of the results.

The assay concerns the target OsWRKY34 (Oryza sativa, UniProt Q0JBA9 1-250). Description: protein-binding microarray (RPBM); PBS, 2% BSA, 51.3 ng/ul salmon testes DNA, 50 uM zinc acetate, 200 nM TF, 25 C, 1 h; high values mean tight binding. The following applies: protein: recombinant; tags: N-terminal polyhistidine and DsRed monomer fusion (pET32a); label: CyDye5-dUTP incorporated in the synthesized complementary strand; 3' TTTTT single-stranded linker to array surface; dsDNA, one strand shown. The method, boiled down:
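Transcription factors were made in E. coli BL21-CodonPlus as N-terminal fusions to a polyhistidine tag and DsRed, then purified on Ni–NTA. After primer extension with Cy5-dUTP and blocking with 2% BSA, a custom Agilent array was exposed for 1 h at 25 °C to 200 nM protein in PBS, 2% BSA, salmon testes DNA and 50 µM zinc acetate. Washed arrays were scanned on an Axon 4000B, and the binding signal is per-feature fluorescence intensity in arbitrary units.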
In the case of “CCACCGGCGACCGCCCTGCCCCGCCTGCAGCGGAATCCATCGGAGTCACCTAGTGCAG”, the binding signal is 8400 fluorescence intensity (a.u.). For the sequence “TGTGCATAAGACCCATAGGCAGGCGACACCGCGGCAGCCGCGGAGTCACCTAGTGCAG”, the binding signal is 10400 fluorescence intensity (a.u.). In the case of “ACCACCACCACTGCCACTCTATTCACTTCACTTCCACCGCCGGAGTCACCTAGTGCAG” it was 9460 fluorescence intensity (a.u.). With “GGGAGGATGGCACGTGGGTTTCGCTATTATCTTTTTTTGCCGGAGTCACCTAGTGCAG”, the binding signal is 8980 fluorescence intensity (a.u.).

Regarding “CGAGTATTTACTGCTGCTACTCCTATTCCTACTCCTACTCCGGAGTCACCTAGTGCAG”, the binding signal was 10400 fluorescence intensity (a.u.).

For “GATTTGTTTGTCATCACGGCCACCATTTCACTGTCAGATCCGGAGTCACCTAGTGCAG”, the binding signal is 9000 fluorescence intensity (a.u.). In the case of “TGCTTTCATCTCATGCATCACTTCTATCGGTGGCGATCGACGGAGTCACCTAGTGCAG” it was 8430 fluorescence intensity (a.u.); in that of “TGAATCTATACACTCTTCTATTCAGATTCGTTGTACTATGCGGAGTCACCTAGTGCAG”, 8040 fluorescence intensity (a.u.); in that of “CCGTGCCGCCCGACCCGTCCGCGTTCTTCGTCAACGTCGGCGGAGTCACCTAGTGCAG”, 9810 fluorescence intensity (a.u.).

“CTCAGCACACCTCACCCACGCGAGCGAGACGCTGCGCCTACGGAGTCACCTAGTGCAG”: the binding signal is 8040 fluorescence intensity (a.u.). In the case of “TCCTCTCTGTCTTCTGTCTTCTCTTCTTCTTCCTCACCAACGGAGTCACCTAGTGCAG” it was 11600 fluorescence intensity (a.u.); in that of “GCTTTCTCGTTTTACGTGCTATGCAAATATTCTTCTCTCTCGGAGTCACCTAGTGCAG”, 9720 fluorescence intensity (a.u.); in that of “TTTTTTCCTTCTCGAATGGCCTCGCGCGCGCGCGCGCGCGCGGAGTCACCTAGTGCAG”, 9050 fluorescence intensity (a.u.).

On to “ATTTTGGTTGGCCAACTTTAGCTAACGCATAGAGGACTTTCGGAGTCACCTAGTGCAG”, for which the binding signal is 8620 fluorescence intensity (a.u.). In the case of “GACCCACTCCCTTTCTTTCTCTAACCTCTCTCCTCGCTTCCGGAGTCACCTAGTGCAG” it was 13300 fluorescence intensity (a.u.); in that of “ACCGATGAGATGGTTGGGAGCCGATTAAGGTTATTGTTTTCGGAGTCACCTAGTGCAG”, 8250 fluorescence intensity (a.u.); in that of “ACCGATTAACCCTTAGTTCTGCCACCTCACTTCATATTACCGGAGTCACCTAGTGCAG”, 8420 fluorescence intensity (a.u.). In the case of “TTGTTATTGATCTCGCTCTTACCGATCAACCGATGGGTCCCGGAGTCACCTAGTGCAG” it was 9160 fluorescence intensity (a.u.); in that of “CTCCAGGGTTGTAATCTTGTAATTTTTTCCTGCTCTATCACGGAGTCACCTAGTGCAG”, 9210 fluorescence intensity (a.u.). In the case of “TATTTTGGGGTGGAGGGAGTATAATAATTAAGTAAACATTCGGAGTCACCTAGTGCAG” it was 11600 fluorescence intensity (a.u.). “ACACAACTATTCATCACTTTATCTACTCCCGATATAATTACGGAGTCACCTAGTGCAG”: the binding signal was 10400 fluorescence intensity (a.u.). On to “GAGCCTCCACCGACTCCAACACCAACACACCCTCGGGCCACGGAGTCACCTAGTGCAG”, for which the binding signal is 10800 fluorescence intensity (a.u.).

Regarding “TCTCCATCTCCGCCGGCGACCGTACTTAACCCGATCGGCCCGGAGTCACCTAGTGCAG”, the binding signal is 8120 fluorescence intensity (a.u.). For the sequence “CCTACTCTTCCAGCTTTTAAAATATGGTGTCGTTCACTTTCGGAGTCACCTAGTGCAG”, the binding signal is 8870 fluorescence intensity (a.u.). For “GCTCCCGTGATGGTAGTGGCTATACTTGGTCTTTCATATTCGGAGTCACCTAGTGCAG”, the binding signal is 9510 fluorescence intensity (a.u.). To “GTTCATGGCTCTGGTCTCTTGGTCCACTGGTGCCACTGCTCGGAGTCACCTAGTGCAG” belongs 9100 fluorescence intensity (a.u.); to “GATTCGTTTTACAAGTTGCAGTTCTTTACCGGCATCGCTTCGGAGTCACCTAGTGCAG”, 9770 fluorescence intensity (a.u.). In the case of “CATCTTCTTTCTCTCTCTACTGTCCTAGCAATTCTCTCTCCGGAGTCACCTAGTGCAG” it was 8620 fluorescence intensity (a.u.). With “AGAGTTACGTTCTAACAAATCGTCCACTGTTTTTCATCTCCGGAGTCACCTAGTGCAG”, the binding signal was 8090 fluorescence intensity (a.u.).

Regarding “TATACTTCCTCAGTTTTTTAATGTATAACACTGTTGACTTCGGAGTCACCTAGTGCAG”, the binding signal was 9140 fluorescence intensity (a.u.). In the case of “GGAGATGTTCCATCCTTGACCGCCTGCAAGTCTGTCCCACCGGAGTCACCTAGTGCAG” it was 10400 fluorescence intensity (a.u.). In the case of “GCCGCCGCCACCACCACCGTGCCCGAGCTCGCCGACCACCCGGAGTCACCTAGTGCAG” it was 8300 fluorescence intensity (a.u.); in that of “GCCCCTTTTTTTGTTTCATTCTCTGTGAAGCGTAAAATTTCGGAGTCACCTAGTGCAG”, 8490 fluorescence intensity (a.u.). With “GTTCTCCGCCAACGCTTCATGAAGGCGTACTTTGACTTTACGGAGTCACCTAGTGCAG”, the binding signal is 10500 fluorescence intensity (a.u.).

Take “GGGTCTCACGATTCCCCGCTATTGAGGATCTTCCCTCGACCGGAGTCACCTAGTGCAG”: the binding signal was 8900 fluorescence intensity (a.u.). For the sequence “GGTTGGTTTCTTTGTTTTTCTCTTATATTTACACTATATTCGGAGTCACCTAGTGCAG”, the binding signal was 23800 fluorescence intensity (a.u.). Regarding “TCTCTCTCTCACCTGTTATTAGTCTTGGCTAGCTTTCTTCCGGAGTCACCTAGTGCAG”, the binding signal is 11300 fluorescence intensity (a.u.). Consider “GATCACACACAGCCAGCTGCATTTTTGAATTGAACGGGTACGGAGTCACCTAGTGCAG”, for which the binding signal is 8700 fluorescence intensity (a.u.).

Take “GTCTTCGCAAACGCCGTCCATTTTCCGTCGCCGGACCCCTCGGAGTCACCTAGTGCAG”: the binding signal was 9310 fluorescence intensity (a.u.). To “CGAACCATCAACCAACCGTCCACGCAAACCAACTCGCCACCGGAGTCACCTAGTGCAG” belongs 10000 fluorescence intensity (a.u.); to “TAGGGATTGCTATAAACGGAGCGGAGAATTTTGTTTGTTTCGGAGTCACCTAGTGCAG”, 8360 fluorescence intensity (a.u.); to “TCTCTCTCTCTCTCTCTCTCTCTCTCTCTCTCTCTCTCCGCGGAGTCACCTAGTGCAG”, 11000 fluorescence intensity (a.u.).
